Test results taken from US20180328927A1 (HUNAN SKYWORLD BIOTECHNOLOGIES CO., priority 2015, published 2018).

System: HRP-anti-SAM 84-3
Assay: SAMe standard curve, competitive ELISA on BSA-SAMe coated plate
Conditions: duplicates

C[S+](CC[C@H](N)C(=O)[O-])C[C@H]1O[C@@H](n2cnc3c(N)ncnc32)[C@H](O)[C@@H]1O (stereo partly shown) [SAMe, S-adenosylmethionine]
OD450 (SAMe) (SAMe 0.3125 uM): 1.0548 and 0.9196 | OD450 (SAMe) (SAMe 0.625 uM): 0.9742 and 0.9250 | OD450 (SAMe) (SAMe 1.25 uM): 0.7431 and 0.7396 | OD450 (SAMe) (SAMe 2.5 uM): 0.4976 and 0.4788 | OD450 (SAMe) (SAMe 5 uM): 0.2461 and 0.2307 | OD450 (SAMe) (SAMe 10 uM): 0.1389 and 0.1343 | OD450 (SAMe) (SAMe 20 uM): 0.1407 and 0.1447

“And” between values parts separate entries of the source, which are not always exact repeats. Equal entries are not always repeated.
